Data taken from patent US11925178B1, “2′-alkyloxy-6′-phenyl[3,4′-bipyridine]-3′-carbonitrile as an insecticidal agent against Aphis craccivora” (priority 2023, dated 2024).

Tests used:
[1] = tested on: adults of cowpea aphid (Aphis craccivora); assay: Leaf dipping insecticidal bioassay, adults of cowpea aphid; format: in vivo; settings: after 24 h of treatment, probit analysis
Protocol: (§1) The original batches of cowpea aphid insects were collected from pest's laboratory, Plant Protection Research Institute, Agricultural Research Center. The target compounds were screened for their insecticidal activity towards nymphs and adults of cowpea aphid.
(§2) The insecticidal activities of compounds 4 and 5 were measured by using leaf dipping method under the same reported laboratory conditions. Five concentrations of compound 4, 5 and 0.1% Tween-80 as a surfactant were used. Nearly the same size 30 nymphs and 30 adults of cowpea aphid insects were used for dipping for 10 second in every concentration of each compound (repeat three times). Insects which tested were allowed to stand to dry at room temperature for about half an hour. In the control experiment, the insects were dunked in distilled water and 0.1% tween-80 only. These applications were carried out at 5% relative humidity, and at a temperature of 25° C. After the used insect had dried, they were transferred to glass jars containing water. With a new binocular microscope, the aphid mortality was taken after 24 hrs of treatment. Any aphid that was unable to move was considered dead. The LC50 values used to evaluate the insecticidal activity were estimated by probit analysis.

[2] = tested on: nymphs of cowpea aphid (Aphis craccivora); assay: Leaf dipping insecticidal bioassay, nymphs of cowpea aphid; format: in vivo; settings: after 24 h of treatment, probit analysis
Protocol: as §1, §2

C/C(=N\C#N)N(C)Cc1ccc(Cl)nc1 [Acetamiprid, acetamiprid, reference compound]
Slope [1]: 0.387 | Slope [2]: 0.381

CCOc1nc(-c2ccccc2)cc(-c2cccnc2)c1C#N [Compound 4, 2′-Ethoxy-6′-phenyl[3,4′-bipyridine]-3′-carbonitrile]
Slope [1]: 0.461 | Slope [2]: 0.397

COc1nc(-c2ccccc2)cc(-c2cccnc2)c1C#N [Compound 5, 2′-Methoxy-6′-phenyl[3,4′-bipyridine]-3′-carbonitrile]
Slope [1]: 0.492 | Slope [2]: 0.322
